# According to PMC7157780:
# Results are given in words; binding and its absence hold for the method and conditions named. In cells and extracts the contact can be indirect. Binding can be weak; no strength is given. Sequences can lack the tags named with a protein.
# B1: GFP-tagged Rab2a S20N (dominant-negative) (protein, UniProt P61019 1-212)
# chain: MAYAYLFKYIIIGDTGVGKNCLLLQFTDKRFQPVHDLTIGVEFGARMITIDGKQIKLQIWDTAGQESFRSITRSYYRGAAGALLVYDITRRDTFNHLTTWLEDARQHSNSNMVIMLIGNKSDLESRREVKKEEGEAFAREHGLIFMETSAKTASNVEEAFINTAKEIYEKIQEGVFDINNEANGIKIGPQHAATNATHAGNQGGQQAGGGCC
# Biological target: myc-tagged RicA (Brucella abortus) (UniProt Q2YQG1)
# Assay: co-IP
binder,measurement,value
B1,binding,binds
